Measurements published in PubChem BioAssay AID1794845 (National Center for Advancing Translational Sciences (NCATS), 2023).
Screen size: about 6,900 compounds; fewer than 10 were called active. The call rests on the fitted dose curve; in most records, active means well fitted curve in the direction sought with a large enough effect; inconclusive means small, poorly fitted or top-dose-only effect, or another doubt; inactive means no such curve, though single readings can be large or run the other way. Some of the results follow.

The chains behind the UniProt entries cited, without tags or fusion partners. Where a name states a change or a piece, a line headed by the entry shows the natural chain unless it says otherwise.
UniProt C7C422: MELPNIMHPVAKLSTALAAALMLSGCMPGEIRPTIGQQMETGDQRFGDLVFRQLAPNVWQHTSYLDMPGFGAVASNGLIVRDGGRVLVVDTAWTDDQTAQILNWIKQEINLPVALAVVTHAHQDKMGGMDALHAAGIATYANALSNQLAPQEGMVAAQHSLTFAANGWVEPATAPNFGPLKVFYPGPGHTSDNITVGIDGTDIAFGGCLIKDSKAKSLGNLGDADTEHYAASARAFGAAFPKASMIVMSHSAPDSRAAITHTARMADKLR

The molecules below were run against Metallo-beta-lactamase type 2 (Klebsiella pneumoniae) (UniProt C7C422) (assay: qHTS to identify inhibitors of the New Delhi Metallo-beta-lactamase (NDM): primary screen against the NCATS Gemini Collection). Conditions: NDM-1 enzyme, meropenem hydrolysis, absorbance 300 nm; at 38.4 µM (top of the series) unless noted.
Source text: Assay Submitter (PI): James Inglese Ph.D., Patricia Dranchak Ph.D., Mahesh Aitha Ph.D. Assay Development and Screening Technology Laboratory (ADST) National Center for Advancing Translational Sciences (NCATS), Rockville, MD National Institute of Health (NIH), Bethesda, Maryland The metallo-beta-lactamases (MBL) are a main antibiotic resistance mechanism evolved by bacteria. There is an urgent clinical need for MBL inhibitors to mitigate this growing threat. To support a machine-based learning study, qHTS has been used to experimentally test inhibitors identified by prediction tools.
PROTOCOL TABLE (as described by Inglese et al., 2007) SEQUENCE No. (e.g., 1, 2, 3, etc.); […] (e.g., enzyme, Incubation, Reagent, etc.); VALUE; DESCRIPTION 1; NDM-1; 4 uL of 3 nM enzyme [2 nM final] in 50 mM HEPES (pH 7.0), 1 uM […], 0.01% Tween20; Use BioRaptr to dispense into Aurora black, clear bottom low base 1536-well plates 2; Compounds; 23 nL; Use Pin Tool (Wako) to transfer DMSO control and library compounds in DMSO 3; Incubate; >30 min 4; Reagent; 2 uL of 150 uM meropenem [50 uM final] 5; Incubate; 30 min. 6; Detector; Absorbance at 300 nm (bandwidth = 5 nm, 25 flashes/well) on Tecan Infinity NOTES (numbers refer to sequence above) 1; Column 1 of each plate received assay buffer without enzyme and columns 2-48 received enzyme for a final assay concentration of 2 nM. 2; Control plate contained DMSO in columns 1, 2, 3, and 4. 3; Compound interaction with enzyme. 4; Meropenem substrate was prepared in the same assay buffer as step 1 for a final assay concentration of 50 uM and added to all wells across the assay plates. 5; Substrate interaction with enzyme, plateau phase of kinetics. 6; Default reader settings were applied for absorbance read at 300 nm, bandwidth = 5 nm, 25 flashes/well. References: Inglese J, Shamu CE, Guy RK. 2007. Reporting data from high-throughput screening of small-molecule libraries. Nat Chem Biol. doi:10.1038/nchembio0807-438 Yasgar A, Shinn P, Jadhav A, Auld D, Michael S, Zheng W, Austin CP, Inglese J, Simeonov A. 2008. Compound Management for Quantitative High-Throughput Screening. J Lab Autom 13:79 - 89. doi:10.1016/j.jala.2007.12.004
Further: % of control where 0% means no effect.

Activity % (negative = inhibition), inactive:
O=C([C@H]1C[C@H](Oc2cccnc2)CN1C(=O)Nc1ccccc1)N1CCOCC1 0.94%
CC(C)=CC(=O)N1C[C@@H](NC(=O)NC2CCCCC2)C[C@H]1C(=O)N[C@H](Cc1c[nH]c2ccccc12)C(N)=O 0.347%
O=S(=O)(c1ccccc1Cl)N1CCC(c2noc(COCc3ccccc3)n2)CC1 32%
O=C(NCc1ccc(Cl)s1)C1CCCN(C2CCN(C(=O)C3CC3)CC2)C1 (stereo unspecified) -0.743%
C=CCNC(=O)N[C@H]1C[C@@H](C(=O)N[C@H](Cc2c[nH]c3ccccc23)C(N)=O)N(C(=O)c2cccn2C)C1 -0.822%
COCc1ccccc1-c1cn(C)c(=O)n2cc(COc3ccc(Cl)cc3)nc12 5.28% [at 57.5 µM]
Cc1cccc(S(=O)(=O)N2CCCC(Cn3cc(CO)nn3)C2)c1 (stereo unspecified) -1.37%
O=C(C1CCC(=O)N(C2CCCC2)C1)N1CCN(c2nccs2)CC1 (stereo unspecified) 2.26%
Cc1cc(C)n(CCC(=O)NCC2CCN(c3cc(-c4ccc(Cl)cc4)[nH]n3)CC2)n1 14.7%
Cc1ccc(C(=O)N2CCC(Cc3noc(C4CCOCC4)n3)C2)s1 (stereo unspecified) 10.2%
O=C(c1cnc(C2CC2)nc1)N1CCC2(CCNCC2CO)CC1 (stereo unspecified) 4.98%
Cc1ccc(-n2cccc2CC(=O)N2CCCC2)cc1 17.2%
Cc1ccc(CN2CCN(Cc3ccc(=O)n(C)c3)CC2)cc1 0.52%
CN1C(=O)CCC2(CNC(=O)CCc3c[nH]c4ccccc34)CCC=C12 (stereo unspecified) 2.26%
CCN1CCN(CCNC(=O)CN2CCCc3nc(C4CC4)ncc3C2=O)CC1 2.43%
N#Cc1ccc(-n2nc(C3CCOCC3)nc2C2(C(N)=O)CC2)cc1 0.22%
CN1CCC(N2CC[C@H](c3nc4ccccc4[nH]3)C2)CC1 8.24% [at 77.1 µM]
O=C(NCCCc1ccccc1F)[C@@]12CNC[C@@H]1CN(Cc1ccccc1)C2 2.98%
C[C@H]1CN(C(=O)CCCc2ccccc2)C[C@@H]1c1nc(-c2ccccc2)no1 0.89%
CCNC(=O)N1CCCC(Cc2noc(-c3cnccn3)n2)C1 (stereo unspecified) 5.12%
O=C(CCn1cnnn1)N1CCCC(CCc2cccc(C(F)(F)F)c2)C1 (stereo unspecified) 3.31%
CC1(C)C(=O)N(CCOc2ccccc2)[C@H]2CN(CC3CCOC3)C[C@H]2[S+]1(=O)[O-] (stereo partly specified) 6.92% [at 57.5 µM]
Cc1cnn(CCC(=O)N2CCC3(CCNCC3)CC2)c1 -13.9%
Cc1nn(C)c(C)c1CCN(C)Cc1ccc(=O)n(C)c1 -5.59%
COc1ccc(C(=O)N2CCC3(C2)C(=O)Nc2ccccc23)cc1 (stereo unspecified) 1.38%
CSCc1noc(CN2CCCC(CO)(CC=C(C)C)C2)n1 (stereo unspecified) 11.2%
O=C(NCCc1ccc(Cl)cc1)c1nc(-c2ccc(Cl)cc2Cl)c2ccccn12 9.91%
O=C(CNC(=O)c1cccc(-c2ccc(C(F)(F)F)cc2)c1)NCC(F)(F)F 1.51%
O=C(c1cc(Br)cn2ccnc12)N1CCCC1 2.44% [at 57.5 µM]
Cc1nn(C)c(C)c1CCCN(C)C(=O)c1ccc2c(c1)C(O)CCCCCN2C (stereo unspecified) -0.231%
O=C(NCC1CN(S(=O)(=O)c2cccnc2)CC12CCOCC2)N1CCCC1 (stereo unspecified) 14.3%
O=C(CCC1CCN(Cc2cn(-c3ccccc3)nn2)CC1)N1CCOCC1 -0.517%
COCC(=O)N[C@H]1C[C@@H](CO)N(Cc2ccsc2)C1 6.31%
NC(=O)N1CCCC(C(=O)NCCCn2nccc2C2CC2)C1 (stereo unspecified) 0.843%
Cc1cnc(CN(C)Cc2cn(-c3ccccc3)nn2)[nH]1 1.49%
CCC1c2nccn2CCCN1C(=O)Cn1c(=O)oc2ccccc21 (stereo unspecified) 7.56%
CCNC(=O)N1CCOc2ccc(CCC(=O)N3CCCCC3c3cccnc3)cc2C1 (stereo unspecified) 6.41%
COc1ccccc1N1CCN(C(=O)CC[C@]23CC[C@](C)(O)C[C@H]2C(C)(C)C[C@@H]3NC(=O)c2cccnc2)CC1 -2.02%
Cc1cc(C)c(C#N)c(N2CCC3(CCC(=O)N(CC(C)O)C3)CC2)n1 (stereo unspecified) 3.73%
CCOCc1nc(C2CCCN2S(=O)(=O)c2cn(C)cn2)no1 (stereo unspecified) 2.39%
O=C(c1cc(-c2ccccc2)nc2ccccc12)N1CCc2c(nc[nH]c2=O)C1 3.06%
CCC(CC)Nc1ncnc2c1CN(C1CCC1)C(=O)CN2C 5.71% [at 57.5 µM]
CN1C[C@H](O)C[C@H]1c1nnc2n1CCN(C(=O)C1CCCCC1)CC2 41.5%
CCNC(=O)Nc1ccc([C@H]2OCC(=O)N(Cc3scnc3C)[C@@H]2CO)cc1 -0.857% [at 57.5 µM]
CC1=C[C@@H](CNS(C)(=O)=O)[C@H](C(C)C)C[C@H]1CC(=O)O 7.2% [at 57.5 µM]
CCn1ccc(C(=O)N2CCCn3ccnc3C2c2cnn(C)c2)n1 (stereo unspecified) 2.16%
CSc1ncc(CN2CCC(n3nccc3NC(=O)Cc3ccccc3)CC2)cn1 7.25%
N#Cc1ccccc1CN1CCN(Cc2ccccc2)CC(O)C1 (stereo unspecified) -0.749%
CC1=NOC(C(=O)N2CCCn3nc(C(=O)NCCN(C)C)cc3C2)C1 (stereo unspecified) -12.8%
C[S+](=O)([O-])N1CCn2c(nnc2-c2ccccc2)C1 -13.3% [at 57.5 µM]
Cc1cc2cc(-c3c(C)noc3C)nc(N3CCN(c4ccccn4)CC3)c2o1 14.9% [at 57.5 µM]
Cc1noc(C)c1-c1cc2cc(C(C)C)oc2c(-c2ccc(CO)cc2)n1 5.18% [at 57.5 µM]
Cn1ccnc1CN1CCOc2cc([S+](=O)([O-])Nc3ccccc3)ccc2C1 0.216% [at 57.5 µM]
O=C1NCCCCCN(S(=O)(=O)c2ccc3c(c2)OCCO3)[C@H]2CCC[C@@H]12 8.86%
O=C(c1ccc(Cl)cc1)N1CC(CO)C2(CCNCC2)C1 (stereo unspecified) 14.2%
Cc1cccc(CC(=O)N[C@@H]2CN(c3ccncn3)C[C@H]2CO)c1 0.27%
CS(=O)(=O)N1Cc2ccccc2CC2(CCN(Cc3ccccn3)C2)C1 (stereo unspecified) -2.48%
CN(Cc1ccccc1C(F)(F)F)CC1CCCCC1 0.658% [at 57.5 µM]
CC(=O)N1CCCN(Cc2nnc(C(=O)N3CCC[C@@H]3c3cccc(F)c3)n2-c2cccnc2)CC1 -6.3%
CC(C)c1nccn1CCCNC(=O)c1ccc(-c2cccc(F)c2)nc1 1.92%
CCC(C)(C)C(=O)NCCc1noc(-c2ccccc2)n1 0.937%
CC1(COc2ccccc2)COc2ccc(C(=O)N3CCN(c4ccccn4)CC3)cc2N1 (stereo unspecified) 1.72%
O=C1CN(Cc2cc3cc4c(cc3[nH]c2=O)OCO4)CCCN1 1.39%
COCCOC1CCN(C(=O)c2[nH]nc3c2COc2ccccc2-3)CC1 85%
COc1cccc(C(=O)N2CC(=O)N(Cc3ccc(Cl)cc3)CC(O)C2)c1 (stereo unspecified) -3.82%
CC1Oc2ccc(NC(=O)c3cccs3)cc2CN(CCOc2ccccc2)C1=O (stereo unspecified) 7.73%
CN(C)c1nc(-c2ccncc2)nc2c1CCN(C(=O)c1cc(=O)[nH][nH]1)C2 17.4%
CCCNC(=O)N1CCC2(CC1)N(c1ccccc1)C(=O)CS2=O (stereo unspecified) 45.8%
O=C(NCC1CCCN(C(=O)N2CCCC2)C1)c1ccc(-c2ccccc2)cc1 (stereo unspecified) 3.02%
Cc1nc2ncccn2c1C(=O)N[C@H]1CCOC[C@H]1C1CCOCC1 1.69%
Cc1ccc(C(=O)N2CCC(N3C(=O)c4c(c(C)nn4-c4ccccc4)C3C)CC2)cc1 (stereo unspecified) 5.5%
O=C(Nc1ccc(F)cc1)c1ccc2ccnn2c1 20.8% [at 57.5 µM]
C1CC2(CCN1)CC(OCC1CC1)CCO2 (stereo unspecified) -6.21%
Cc1ccc(C2=NC3(CCN(C(=O)c4ccc(C)c(C)c4)CC3)ON2)cc1 25.1%
Cc1ccc(-c2cc(-c3ccncc3)c3cncn3c2)cn1 61.6% [at 77.1 µM]
O=C(C1CC=CC1)N1C[C@@H](COc2cccnc2)[C@H](c2ccccn2)C1 0.815%
CNC(=O)N1CCC(C2CCN(C(=O)NCc3cccc(OC)c3)C2)CC1 (stereo unspecified) -1.39%
O=C(NCC1CCCO1)C1CCN(C2CCN(C(=O)CCC3CCCCC3)CC2)CC1 (stereo unspecified) 0.446%
CC(C)[S+](=O)([O-])N1CC2ON=C(C(=O)O)C2C1 (stereo unspecified) -1.12% [at 57.5 µM]
CCN(CC)S(=O)(=O)c1ccc(-c2nc(C)ccc2OC)cc1 4.23%
COCc1cn(C[C@H]2C[C@@H](NC(=O)c3ccc(C#N)cc3)[C@H](O)[C@@H]2O)nn1 10.9% [at 57.5 µM]
O=C1CCN(Cc2cccc(F)c2)CCCOCCN1 2.17%
O=C(C[C@@H]1CCNC[C@@H]1Cc1cc(COc2ccccc2)on1)Nc1ccccc1 -9.48% [at 57.5 µM]
Cc1ccc(CC(=O)N2CCN(c3cc(C(F)(F)F)ncn3)CC2)cc1 4.12%
COCCCNC(=O)C1CCCN1Cc1cccc(-c2ccc(C)c(Cl)c2)c1 (stereo unspecified) 7.62%
O=C([C@@H]1C[C@H](F)CN1C(=O)Cc1ccccc1F)N1CCCCC1 4.88%

Random excerpt: four compounds from above, in no set order.
Activity % (negative = inhibition), inactive:
O=C([C@H]1C[C@H](Oc2cccnc2)CN1C(=O)Nc1ccccc1)N1CCOCC1 0.94%
N#Cc1ccc(-n2nc(C3CCOCC3)nc2C2(C(N)=O)CC2)cc1 0.22%
COCCCNC(=O)C1CCCN1Cc1cccc(-c2ccc(C)c(Cl)c2)c1 (stereo unspecified) 7.62%
CCN(CC)S(=O)(=O)c1ccc(-c2nc(C)ccc2OC)cc1 4.23%
